# Reference: article PMC10649752, “Design and Synthesis of Novel Chalcone Derivatives: Anti-Breast Cancer Activity Evaluation and Docking Study” (International Journal of Molecular Sciences, 2023)
# Tested on: human normal hepatocyte L-O2
# Assay: CCK-8 cytotoxicity against normal hepatocyte L-O2 cells
# Assay type: cell-based
# Details: ratio L-02 IC50/MCF-7 IC50
# Procedure: We have selected compounds A7, A8, A9, and A14 with relatively low IC50 values, which are considered to have more potential and are more meaningful for further research. The toxic effects of compounds A7, A8, A9, and A14 on normal hepatocytes cells L-O2 were assessed in this work to examine the selective toxicity of the new compounds on cancer cells without harming normal cells. The selectivity index was calculated as a ratio of L-02 IC50/MCF-7 IC50 for these four compounds. […] Therefore, A8 and A14 were chosen as representative medications for future research after thorough evaluation.
# DMEM high glucose medium and fetal calf serum were obtained from Gibco (New York, NY, USA), and cell counting Kit-8 solution was purchased from Meilunbio (Dalian, China). Paraformaldehyde and Crystal Violet were purchased from Biosharp (Hefei, China). The MCF-7 and L-02 cell lines were purchased from the Shanghai Institute of Biochemistry (Shanghai, China) All the target compounds and 5-fluorouracil (5-Fu) were dissolved with DMSO at a concentration of 20 mM. Cell culture medium was a mixture of DMEM medium, 10% fetal bovine serum, and 1% penicillin–streptomycin solution stored at […]. The cells were grown at 37 °C under 5% CO2.
# Cells were seeded into 96 well plates with 4000 cells/well using DMEM solution and incubated in a humid atmosphere containing 5% CO2 at 37 °C for 24 h. Compounds with different concentrations (200 μM, 100 μM, 50 μM, 25 μM, 12.5 μM, 6.25 μM, 3.125 μM, 1.5625 μM) were added to the culture medium for 24 h. After that, CCK-8 reagent (10 μL) was added under dark conditions and incubated the plate in a CO2 incubator at 37 °C for 2 h. After incubation, the absorbance was measured using an enzyme-linked immunosorbent assay at a wavelength of 450 nm. Cell survival rate was calculated as a percentage of the control group.
# By using Graph Pad Prism 8.0 software, the concentration that inhibits 50% of maximum cell proliferation was determined to be IC50 value.
row,Structure (SMILES),Selectivity Index (SI)
1,"COc1cc(C(=O)/C=C/c2ccc(C(=O)NCc3cccs3)cc2)cc(OC)c1OC [Compound A7, (E)-4-(3-oxo-3-(3,4,5-trimethoxyphenyl)prop-1-en-1-yl)-N-(thiophen-2-ylmethyl) benzamide]",2.35
2,"COc1cc(C(=O)/C=C/c2ccc(C(=O)NCC3CC3)cc2)cc(OC)c1OC [Compound A9, (E)-N-(cyclopropylmethyl)-4-(3-oxo-3-(3,4,5-trimethoxyphenyl)prop-1-en-1-yl) benzamide]",1.80
3,"COc1cc(C(=O)/C=C/c2ccc(C(=O)OCCCSc3ccncc3)cc2)cc(OC)c1OC [Compound A14, 3-(pyridin-4-ylthio) propyl (E)-4-(3-oxo-3-(3,4,5-trimethoxyphenyl)prop-1-en-1-yl) benzoate]",4.21
